# Data as given in patent publication US4056540A, “4-Phenyl-1,3-benzodioxans” (Bristol-Myers Company, priority 1975, dated 1977).
# Test: in vivo
# Settings: mouse, po, 24 hours observation
smiles,measurement,value
"CN1C(=O)CN=C(c2ccccc2)c2cc(Cl)ccc21 [Diazepam, reference compound]",LD50 at 24 h,1400 mg/kg
